Some of these results come from one statement about several compounds together.
Tested on: apple Alternaria leaf blotch (Alternaria mali)
Test: Test Example 3: protective effects against apple Alternaria leaf blotch
Type: in vivo
Details: spray solution as in Test Example 1 (200 ppm), 10 ml/pot, apple seedlings (Starking-Delicious)

## COc1ccc(N(C)S(=O)(=O)c2c(C)cc(C)cc2C)c([N+](=O)[O-])c1 [compound 172]
  protection score: 3 (the lesioned area ratio is less than 10%)

## O=[N+]([O-])c1ccc(N(C2CC2)S(=O)(=O)c2ccccc2)c([N+](=O)[O-])c1 [compound 429]
  protection score: 3 (the lesioned area ratio is less than 10%)

## CN(c1ccc(Cl)cc1[N+](=O)[O-])S(=O)(=O)/C=C/c1ccccc1 [Compound No. 282, 4-Chloro-2-nitro-N-methyl-N-[(trans)-β-styrenesulfonyl]aniline]
  protection score: 3 (the lesioned area ratio is less than 10%)

## CCN(c1ccc([N+](=O)[O-])cc1[N+](=O)[O-])S(=O)(=O)c1ccc(Cl)s1 [compound 457]
  protection score: 3 (the lesioned area ratio is less than 10%)

## CC(C)N(c1ccc(Cl)cc1[N+](=O)[O-])S(=O)(=O)c1ccccc1 [compound 279]
  protection score: 3 (the lesioned area ratio is less than 10%)

## CCN(c1ccc(C#N)cc1[N+](=O)[O-])S(=O)(=O)c1ccc(Cl)s1 [Compound No. 415, 5-Chloro-N-(4-cyano-2-nitrophenyl)-N-ethyl-2-thiophenesulfonamide]
  protection score: 3 (the lesioned area ratio is less than 10%)

## CSc1ccc(N(C(C)C)S(=O)(=O)c2ccc(C)cc2)c(C#N)c1 [compound 101]
  protection score: 3 (the lesioned area ratio is less than 10%)

## CCCN(c1ccc(Cl)cc1[N+](=O)[O-])S(=O)(=O)c1ccc(C)cc1 [compound 290]
  protection score: 3 (the lesioned area ratio is less than 10%)

## CCN(c1ccc(Cl)cc1C(=N)SC(C)C)S(=O)(=O)c1ccc(C)cc1.I [compound 89]
  protection score: 3 (the lesioned area ratio is less than 10%)

## Cc1ccc(S(=O)(=O)N(C)c2cc(Cl)c(Cl)cc2[N+](=O)[O-])cc1 [compound 464]
  protection score: 3 (the lesioned area ratio is less than 10%)

## Cc1ccc(S(=O)(=O)N(C)c2ccc([N+](=O)[O-])cc2[N+](=O)[O-])cc1 [compound 434]
  protection score: 3 (the lesioned area ratio is less than 10%)

## CON(c1ccc([N+](=O)[O-])cn1)S(=O)(=O)c1ccc(C)cc1 [compound 554]
  protection score: 3 (the lesioned area ratio is less than 10%)

## CON(c1ccccc1[N+](=O)[O-])S(=O)(=O)c1ccc(C)cc1 [compound 539]
  protection score: 3 (the lesioned area ratio is less than 10%)

## CC(=O)Oc1ccc(N(C)S(=O)(=O)c2ccc(C)cc2)c([N+](=O)[O-])c1 [compound 218]
  protection score: 3 (the lesioned area ratio is less than 10%)

## Cc1ccc(S(=O)(=O)N(C)c2ccccc2C#N)cc1 [compound 25]
  protection score: 3 (the lesioned area ratio is less than 10%)

## Cc1ccc(S(=O)(=O)N(C)c2ccc(Cl)cc2C=NN)cc1 [compound 69]
  protection score: 3 (the lesioned area ratio is less than 10%)

## CCCN(c1ccc(F)cc1[N+](=O)[O-])S(=O)(=O)c1ccc(C)cc1 [compound 264]
  protection score: 3 (the lesioned area ratio is less than 10%)

## CSc1ccc(N(C(C)C)S(=O)(=O)c2ccc(C)cc2)c([N+](=O)[O-])c1 [Compound No. 229, N-Isopropyl-4′-methylthio-2′-nitro-p-toluenesulfonanilide]
  protection score: 3 (the lesioned area ratio is less than 10%)

## CON(c1ccc(C#N)cc1Cl)S(=O)(=O)c1ccc(C)cc1 [Compound No. 566, 2′-Chloro-4′-cyano-N-methoxy-p-toluenesulfonanilide]
  protection score: 3 (the lesioned area ratio is less than 10%)

## COc1ccc(N(C)S(=O)(=O)c2ccc(Cl)cc2)c([N+](=O)[O-])c1 [compound 177]
  protection score: 3 (the lesioned area ratio is less than 10%)

## Cc1ccc(S(=O)(=O)N(C)c2ccc(C#N)cc2[N+](=O)[O-])cc1 [compound 406]
  protection score: 3 (the lesioned area ratio is less than 10%)

## CCON(c1ccc([N+](=O)[O-])cc1Cl)S(=O)(=O)c1ccc(C)cc1 [Compound No. 533, 2′-Chloro-N-ethoxy-4′-nitro-p-toluenesulfonanilide]
  protection score: 3 (the lesioned area ratio is less than 10%)

## CSC(=N)c1cc(Cl)ccc1N(C)S(=O)(=O)c1ccc(C)cc1.I [compound 86]
  protection score: 3 (the lesioned area ratio is less than 10%)

## COc1ccc(N(C)S(=O)(=O)c2ccccc2[N+](=O)[O-])c([N+](=O)[O-])c1 [compound 194]
  protection score: 3 (the lesioned area ratio is less than 10%)

## CN(c1ccc([N+](=O)[O-])cc1[N+](=O)[O-])S(=O)(=O)c1ccc(Cl)cc1 [compound 449]
  protection score: 3 (the lesioned area ratio is less than 10%)

## CSc1ccc(N(C)S(=O)(=O)c2ccc(C)cc2)c(C#N)c1 [Compound No. 99, 2′-Cyano-N-methyl-4′-methylthio-p-toluenesulfonanilide]
  protection score: 3 (the lesioned area ratio is less than 10%)

## Cc1ccc(S(=O)(=O)N(C)c2cccc([N+](=O)[O-])c2)cc1 [Compound No. 40]
  protection score: 3 (the lesioned area ratio is less than 10%)

## Cc1ccc(S(=O)(=O)N(C)c2ccc(C)cc2[N+](=O)[O-])cc1 [compound 119]
  protection score: 3 (the lesioned area ratio is less than 10%)

## C=CN(c1ccc(Cl)cc1[N+](=O)[O-])S(=O)(=O)c1ccc(C)cc1 [Compound No. 298, 4′-Chloro-2′-nitro-N-vinyl-p-toluenesulfonanilide]
  protection score: 3 (the lesioned area ratio is less than 10%)

## Cc1ccc(S(=O)(=O)N(c2ccc(Cl)cc2[N+](=O)[O-])C(C)C)cc1 [Compound No. 291, 4′-Chloro-N-isopropyl-2′-nitro-p-toluenesulfonanilide]
  protection score: 3 (the lesioned area ratio is less than 10%)

## COc1ccc(N(C)S(=O)(=O)c2ccccc2)c([N+](=O)[O-])c1 [compound 163]
  protection score: 3 (the lesioned area ratio is less than 10%)

## CCc1ccc(S(=O)(=O)N(CC)c2ccc(Cl)cc2[N+](=O)[O-])cc1 [compound 326]
  protection score: 3 (the lesioned area ratio is less than 10%)

## CCN(c1ccc(Cl)cc1C#N)S(=O)(=O)c1ccc(C)cc1 [Compound No. 95, 4′-Chloro-2′-cyano-N-ethyl-p-toluenesulfonanilide]
  protection score: 3 (the lesioned area ratio is less than 10%)

## COC(=O)CN(c1ccc(Cl)cc1[N+](=O)[O-])S(=O)(=O)c1ccc(C)cc1 [compound 309]
  protection score: 3 (the lesioned area ratio is less than 10%)

## CCN(c1ccc(SC)cc1[N+](=O)[O-])S(=O)(=O)c1ccc(C)cc1 [Compound No. 227, N-Ethyl-4′-methylthio-2′-nitro-p-toluenesulfonanilide]
  protection score: 3 (the lesioned area ratio is less than 10%)

## C#CCN(c1ccc(OC)cc1[N+](=O)[O-])S(=O)(=O)c1ccc(C)cc1 [compound 211]
  protection score: 3 (the lesioned area ratio is less than 10%)

## CON(c1ccc(SC)cc1[N+](=O)[O-])S(=O)(=O)c1ccc(C)cc1 [Compound No. 572, N-Methoxy-4′-methylthio-2′-nitro-p-toluene sulfonanilide]
  protection score: 3 (the lesioned area ratio is less than 10%)

## Cc1ccc(S(=O)(=O)N(C)c2ncc(Cl)cn2)cc1 [compound 511]
  protection score: 3 (the lesioned area ratio is less than 10%)

## CCc1ccc(N(C)S(=O)(=O)c2ccc(C)cc2)c([N+](=O)[O-])c1 [compound 127]
  protection score: 3 (the lesioned area ratio is less than 10%)
